The source of these data is PMC5568730.

The target in this experiment is OsOFP8-YFP (rice). The experiment can be described thus: co-IP; Arabidopsis protoplasts expressing OsOFP8-YFP and 3HA-OsGSK2 (control: YFP and 3HA-OsGSK2); input and IP blotted with GFP and HA antibodies; the IP antibody is not told in the legend.

These are yes or no findings as the source states them, for the method shown. Binding seen in cells or lysates may run through a third protein. Binding can be weak; no strength is given.

B1: 3HA-OsGSK2 (enzyme, UniProt Q60EZ2 1-402)
chain: MDQPAPAPEPMLLDAQPPAAVACDKKQQEGEAPYAEGNDAVTGHIISTTIGGKNGEPKRTISYMAERVVGTGSFGIVFQAKCLETGETVAIKKVLQDRRYKNRELQLMRAMDHPNVISLKHCFFSTTSRDELFLNLVMEYVPETLYRVLKHYSNANHRMPLIYVKLYMYQLFRGLAYIHTVPGVCHRDVKPQNVLVDPLTHQVKLCDFGSAKTLVPGEPNISYICSRYYRAPELIFGATEYTTSIDIWSAGCVLAELLLGQPLFPGESAVDQLVEIIKVLGTPTREEIRCMNPNYTEFRFPQIKAHPWHKVFHKRMPPEAIDLASRLLQYSPSLRCTALDACAHPFFDELREPNARLPNGRPFPPLFNFKHELANSSQELISRLIPEHVRRQATHNFFNTGS
Turning to B1, the binding result is reported as “binds”.
